# Test results: patent publication US20020123481A1
# No constants are given. Whether binding was seen depends on the method and setting. Some entries that bind do so weakly or less than the wild type.
# Biological target: c-Fos Induced Growth Factor (FIGF), mouse, encoded by Fos regulated gene F0401 (mouse) (UniProt P97946)
# Assay: SDS-PAGE of immunoprecipitated FIGF: multimeric form under non-denaturing conditions, mostly a 66 kDa band and a minor 33 kDa monomer with beta-mercaptoethanol
binder,measurement,value
"c-Fos Induced Growth Factor (FIGF), mouse, encoded by Fos regulated gene F0401 (ligand) FRSEHGPVKDFSFERSSRSMLERSEQQIRAASSLEELLQIAHSEDWKLWRCRLKLKSLASMDSRSASHRSTRFAATFYDTETLKVIDEEWQRTQCSPRETCVEVASELGKTTNTFFKPPCVNVFRCGGCCNEEGVMCMNTSTSYISKQLFEISVPLTSVPELVPVKIANHTGCKCLPTGPRHPYSIIRRSIQTPEEDECPHSKKLCPIDMLWDNTKCKCVLQDETPLPGTEDHSYLQEPTLCGPHMTFDEDRCECVCKAPCPGDLIQHPENCSCFECKESLESCCQKHKIFHPDTCSCEDRCPFHTRTCASRKPACGKHWRFPKETRAQGLYSQENP",binding,binds
